Assay results: article PMC4683079
No constants are given. Whether binding was seen depends on the method and setting. Binding seen in cells or lysates may run through a third protein. Binding calls can cover weak binding; strength is not graded here. Sequences can lack the tags named with a protein.

T1: myc-tagged full-length human PTK7 (PTK7-MT) (human) (UniProt Q13308)
T1 sequence: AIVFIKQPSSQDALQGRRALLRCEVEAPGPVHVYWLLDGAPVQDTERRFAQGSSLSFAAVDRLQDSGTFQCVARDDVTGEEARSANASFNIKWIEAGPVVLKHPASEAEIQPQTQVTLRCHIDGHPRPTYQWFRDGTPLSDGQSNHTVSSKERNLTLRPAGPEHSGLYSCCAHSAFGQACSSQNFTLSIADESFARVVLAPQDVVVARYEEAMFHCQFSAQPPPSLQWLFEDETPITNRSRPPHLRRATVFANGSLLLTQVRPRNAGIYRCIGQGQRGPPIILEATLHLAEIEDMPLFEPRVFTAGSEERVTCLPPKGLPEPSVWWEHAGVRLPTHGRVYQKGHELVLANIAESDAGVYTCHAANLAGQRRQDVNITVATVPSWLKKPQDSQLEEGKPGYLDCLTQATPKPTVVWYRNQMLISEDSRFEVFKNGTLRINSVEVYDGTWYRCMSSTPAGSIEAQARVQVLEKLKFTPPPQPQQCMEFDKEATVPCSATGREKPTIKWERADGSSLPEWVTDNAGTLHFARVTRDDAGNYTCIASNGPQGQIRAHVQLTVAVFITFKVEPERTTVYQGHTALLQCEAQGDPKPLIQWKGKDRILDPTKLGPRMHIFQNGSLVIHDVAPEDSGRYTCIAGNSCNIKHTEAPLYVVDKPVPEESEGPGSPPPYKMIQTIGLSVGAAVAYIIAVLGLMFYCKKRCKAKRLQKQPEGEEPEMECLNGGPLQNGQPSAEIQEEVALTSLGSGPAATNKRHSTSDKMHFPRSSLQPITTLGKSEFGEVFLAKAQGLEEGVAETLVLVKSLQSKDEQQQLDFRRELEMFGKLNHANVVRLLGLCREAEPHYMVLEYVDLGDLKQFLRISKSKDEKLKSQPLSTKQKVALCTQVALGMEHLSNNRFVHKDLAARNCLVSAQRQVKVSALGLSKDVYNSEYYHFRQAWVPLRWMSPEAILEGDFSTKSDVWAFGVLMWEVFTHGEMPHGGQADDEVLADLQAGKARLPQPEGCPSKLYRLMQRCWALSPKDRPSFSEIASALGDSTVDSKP


Experiments:
Assay in all cases: co-IP; MCF7 cells co-transfected, lysed 48 h later in TBS (50 mM Tris pH 7.5, 150 mM NaCl) with 0.5% NP-40; IP with anti-myc, anti-HA or anti-Flag M2 and Protein A Sepharose at 4°C; five washes with lysis buffer; Western blot
[1] = target: T1, myc-tagged full-length human PTK7 (PTK7-MT) (human)
[2] = target: mouse Ror2∆469-Flag (mouse)
Ror2Δ745-Flag = target: Ror2Δ745-Flag
Ror2ΔCRD/KR∆745-Flag = target: Ror2ΔCRD/KR∆745-Flag

Molecule | binding [1] | binding [2] | binding (Ror2Δ745-Flag) | binding (Ror2ΔCRD/KR∆745-Flag)
Xenopus Ror2-EGFP (receptor) | binds | – | – | –
myc-tagged full-length human PTK7 (PTK7-MT) (receptor, UniProt Q13308 31-1070) AIVFIKQPSSQDALQGRRALLRCEVEAPGPVHVYWLLDGAPVQDTERRFAQGSSLSFAAVDRLQDSGTFQCVARDDVTGEEARSANASFNIKWIEAGPVVLKHPASEAEIQPQTQVTLRCHIDGHPRPTYQWFRDGTPLSDGQSNHTVSSKERNLTLRPAGPEHSGLYSCCAHSAFGQACSSQNFTLSIADESFARVVLAPQDVVVARYEEAMFHCQFSAQPPPSLQWLFEDETPITNRSRPPHLRRATVFANGSLLLTQVRPRNAGIYRCIGQGQRGPPIILEATLHLAEIEDMPLFEPRVFTAGSEERVTCLPPKGLPEPSVWWEHAGVRLPTHGRVYQKGHELVLANIAESDAGVYTCHAANLAGQRRQDVNITVATVPSWLKKPQDSQLEEGKPGYLDCLTQATPKPTVVWYRNQMLISEDSRFEVFKNGTLRINSVEVYDGTWYRCMSSTPAGSIEAQARVQVLEKLKFTPPPQPQQCMEFDKEATVPCSATGREKPTIKWERADGSSLPEWVTDNAGTLHFARVTRDDAGNYTCIASNGPQGQIRAHVQLTVAVFITFKVEPERTTVYQGHTALLQCEAQGDPKPLIQWKGKDRILDPTKLGPRMHIFQNGSLVIHDVAPEDSGRYTCIAGNSCNIKHTEAPLYVVDKPVPEESEGPGSPPPYKMIQTIGLSVGAAVAYIIAVLGLMFYCKKRCKAKRLQKQPEGEEPEMECLNGGPLQNGQPSAEIQEEVALTSLGSGPAATNKRHSTSDKMHFPRSSLQPITTLGKSEFGEVFLAKAQGLEEGVAETLVLVKSLQSKDEQQQLDFRRELEMFGKLNHANVVRLLGLCREAEPHYMVLEYVDLGDLKQFLRISKSKDEKLKSQPLSTKQKVALCTQVALGMEHLSNNRFVHKDLAARNCLVSAQRQVKVSALGLSKDVYNSEYYHFRQAWVPLRWMSPEAILEGDFSTKSDVWAFGVLMWEVFTHGEMPHGGQADDEVLADLQAGKARLPQPEGCPSKLYRLMQRCWALSPKDRPSFSEIASALGDSTVDSKP | – | binds | binds | binds
